Data published in patent US20070243303, “Methods and Means for Regulating Gene Expression” (Friesland Brands B.V., published 2007).
For part of these data: The comparison behind a weaker result is the experiment's own reference, which may not be listed here. Tags and fusion partners may be left off the protein sequences shown.

Experiments:
[1] = biological target: T1, CodY (native, in cell) (Lactococcus lactis subsp. cremoris MG1363) (UniProt A2RHP2); assay: activity in cells; conditions: lacZ reporter in L. lactis LL108, exponential growth in rich medium; protein in cells; only the site is given; counted as no effect
T1 sequence (looked up, limits assumed): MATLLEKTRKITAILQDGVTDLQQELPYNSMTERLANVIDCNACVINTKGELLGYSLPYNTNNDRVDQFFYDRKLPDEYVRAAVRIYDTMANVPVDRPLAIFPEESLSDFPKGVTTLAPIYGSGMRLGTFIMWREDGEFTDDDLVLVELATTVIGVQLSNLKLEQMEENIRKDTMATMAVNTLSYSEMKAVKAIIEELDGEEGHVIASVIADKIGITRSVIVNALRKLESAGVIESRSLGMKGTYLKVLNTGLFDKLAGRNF

[2] = biological target: T2, CodY (H6-CodY) (Lactococcus lactis subsp. cremoris MG1363) (UniProt A2RHP2); assay: EMSA; conditions: purified recombinant protein, label: 32P 5'-end, variant of opp14 WT oppD fragment (154 bp), only the site is given
T2 sequence (looked up, limits assumed): T1 sequence (looked up, limits assumed)

## AACTGCAGGAAAATTCATGAACATACC (double strand) [oppD probe 1 / opp2 (160 bp, upstream arm removed)]
[1]
  activity on this sequence (fold derepression vs WT): 30

## AACTGCAGCGTAATATTTAGAAAATTCATGAACATACC (double strand) [opp15(a) mutant oppD fragment (154 bp)]
[2]; weaker than WT
  binding result: binds more weakly

## AACTGCAGCGTACTGTGCCGAAAATTCATGAACATACC (double strand) [opp15(b) mutant oppD fragment (154 bp)]
[2]; hardly any complexes, intermediate complexes absent
  binding result: binds more weakly
